# Assay results reported in the supplement of paper PMC8728848.
# This is one part of the list.
# B1: SP15308B-bot-339-22-339 (Bacteroides ovatus) (protein)
# chain: NEWEDEQYEQYVSFKAPIASGSDGVTTIYVRYKDNGKVTYQLPIIVSGSTVNSQDRDIHIAVDKDTLKTLNIERFSLYRPELWYTEMEEDKYEFPETVHIPAGSCVELLNIDFNLQDIDMLEKWVLPLTIVDDGSYAYQSHPRKNYAKALLKVVPFNNYSGSYTASSMKVYTYINGKPDTNARTTDKRTGYVVDNNSIFFYAGLINEDMDKDMRKKYKINVHFKEDGTLDMKQDDPSNEMEFELIGTPTYSSTSVMDATRPYLERRYVQIMFEYDFQDFTYGGSGTEVIPIKYRVAGSMTLLRNINTQIPDEDQQIEW
# Columns and labels:
# Assay in all cases: glycan array binding signal (z-score within array); higher = stronger binding
# Settings in all cases: glycan notation: IUPAC condensed, linker removed
# Gal(a1-3)Gal(b1-4)GlcNAc = target: Gal(a1-3)Gal(b1-4)GlcNAc
# Method in brief: (§1)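 The binding signal is a Z-score computed within each array. Data were drawn from 3228 arrays in the Consortium for Functional Glycomics database, restricted to those with a known protein sequence. Scores were averaged over arrays of the same protein sequence at different concentrations or buffers, and over linkers, and negative values can be taken as non-binding.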
# [1] = target: Gal(a1-3)Gal(b1-4)GlcNAc(b1-2)Man
# Method in brief: as §1
# [2] = target: Gal(a1-3)Gal(b1-4)GlcNAc(b1-2)Man(a1-3)[Gal(a1-3)Gal(b1-4)GlcNAc(b1-2)Man(a1-6)]Man(b1-4)GlcNAc(b1-4)GlcNAc
# Method in brief: as §1
# [3] = target: Gal(a1-3)Gal(b1-4)GlcNAc(b1-3)GalNAc
# Method in brief: as §1
# [4] = target: Gal(a1-3)Gal(b1-4)GlcNAc(b1-6)GalNAc
# Method in brief: as §1
# [5] = target: Gal(a1-3)Gal(b1-4)[Fuc(a1-3)]GlcNAc
# Method in brief: as §1
# [6] = target: Gal(a1-3)Gal(b1-4)[Fuc(a1-3)]GlcNAc(b1-2)Man(a1-3)[Gal(a1-3)Gal(b1-4)[Fuc(a1-3)]GlcNAc(b1-2)Man(a1-6)]Man(b1-4)GlcNAc(b1-4)GlcNAc
# Method in brief: as §1
# Gal(a1-3)GalNAc = target: Gal(a1-3)GalNAc
# Method in brief: as §1
# [7] = target: Gal(a1-3)[Gal(a1-4)]Gal(b1-4)GlcNAc
# Method in brief: as §1
# [8] = target: Gal(a1-4)Gal(b1-3)GlcNAc(b1-2)Man(a1-3)[Gal(a1-4)Gal(b1-3)GlcNAc(b1-2)Man(a1-6)]Man(b1-4)GlcNAc(b1-4)GlcNAc
# Method in brief: as §1
# Gal(a1-4)Gal(b1-4)Glc = target: Gal(a1-4)Gal(b1-4)Glc
# Method in brief: as §1
# Gal(a1-4)Gal(b1-4)GlcNAc = target: Gal(a1-4)Gal(b1-4)GlcNAc
# Method in brief: as §1
# [9] = target: Gal(a1-4)Gal(b1-4)GlcNAc(b1-2)Man(a1-3)[Gal(a1-4)Gal(b1-4)GlcNAc(b1-2)Man(a1-6)]Man(b1-4)GlcNAc(b1-4)GlcNAc
# Method in brief: as §1
# [10] = target: Gal(a1-4)Gal(b1-4)GlcNAc(b1-3)Gal(b1-4)Glc
# Method in brief: as §1
# Gal(a1-4)GlcNAc = target: Gal(a1-4)GlcNAc
# Method in brief: as §1
# Gal(a1-6)Glc = target: Gal(a1-6)Glc
# Method in brief: as §1
# Gal(b1-2)Gal = target: Gal(b1-2)Gal
# Method in brief: as §1
# Gal(b1-3)Gal = target: Gal(b1-3)Gal
# Method in brief: as §1
# Gal(b1-3)Gal(b1-4)GlcNAc = target: Gal(b1-3)Gal(b1-4)GlcNAc
# Method in brief: as §1
# Gal(b1-3)GalNAc = target: Gal(b1-3)GalNAc
# Method in brief: as §1
# [11] = target: Gal(b1-3)GalNAc(a1-3)[Fuc(a1-2)]Gal(b1-4)Glc
# Method in brief: as §1
# [12] = target: Gal(b1-3)GalNAc(a1-3)[Fuc(a1-2)]Gal(b1-4)GlcNAc
# Method in brief: as §1
# Gal(b1-3)GalNAc(b1-3)Gal = target: Gal(b1-3)GalNAc(b1-3)Gal
# Method in brief: as §1
# [13] = target: Gal(b1-3)GalNAc(b1-3)Gal(a1-4)Gal(b1-4)Glc
# Method in brief: as §1
# [14] = target: Gal(b1-3)GalNAc(b1-4)Gal(b1-4)Glc
# Method in brief: as §1
# [15] = target: Gal(b1-3)GalNAc(b1-4)[Neu5Ac(a2-3)]Gal(b1-4)Glc
# Method in brief: as §1
# Gal(b1-3)GlcNAc = target: Gal(b1-3)GlcNAc
# Method in brief: as §1
# [16] = target: Gal(b1-3)GlcNAc(a1-3)Gal(b1-4)GlcNAc
# Method in brief: as §1
# [17] = target: Gal(b1-3)GlcNAc(a1-6)Gal(b1-4)GlcNAc
# Method in brief: as §1
# Gal(b1-3)GlcNAc(b1-2)Man = target: Gal(b1-3)GlcNAc(b1-2)Man
# Method in brief: as §1
# [18] = target: Gal(b1-3)GlcNAc(b1-2)Man(a1-3)[Gal(b1-3)GlcNAc(b1-2)Man(a1-6)]Man(b1-4)GlcNAc(b1-4)GlcNAc
# Method in brief: as §1
# [19] = target: Gal(b1-3)GlcNAc(b1-2)Man(a1-3)[Gal(b1-3)GlcNAc(b1-2)Man(a1-6)]Man(b1-4)GlcNAc(b1-4)[Fuc(a1-6)]GlcNAc
# Method in brief: as §1
# [20] = target: Gal(b1-3)GlcNAc(b1-2)Man(a1-3)[GlcNAc(b1-4)][Gal(b1-3)GlcNAc(b1-2)Man(a1-6)]Man(b1-4)GlcNAc(b1-4)GlcNAc
# Method in brief: as §1
# [21] = target: Gal(b1-3)GlcNAc(b1-2)[Gal(b1-3)GlcNAc(b1-6)]Man(a1-6)[Gal(b1-3)GlcNAc(b1-2)Man(a1-3)]Man(b1-4)GlcNAc(b1-4)GlcNAc
# Method in brief: as §1
# [22] = target: Gal(b1-3)GlcNAc(b1-3)Gal(b1-3)GlcNAc
# Method in brief: as §1
# [23] = target: Gal(b1-3)GlcNAc(b1-3)Gal(b1-4)Glc
# Method in brief: as §1
# [24] = target: Gal(b1-3)GlcNAc(b1-3)Gal(b1-4)GlcNAc
# Method in brief: as §1
binder,measurement,setting,value
B1,glycan array binding signal (z-score),Gal(a1-3)Gal(b1-4)GlcNAc,-0.3
same,glycan array binding signal (z-score),[1],0.053
same,glycan array binding signal (z-score),[2],3.88
same,glycan array binding signal (z-score),[3],-0.537
same,glycan array binding signal (z-score),[4],-0.214
same,glycan array binding signal (z-score),[5],-0.386
same,glycan array binding signal (z-score),[6],0.303
same,glycan array binding signal (z-score),Gal(a1-3)GalNAc,-0.219
same,glycan array binding signal (z-score),[7],-0.022
same,glycan array binding signal (z-score),[8],-0.198
same,glycan array binding signal (z-score),Gal(a1-4)Gal(b1-4)Glc,-0.513
same,glycan array binding signal (z-score),Gal(a1-4)Gal(b1-4)GlcNAc,0.714
same,glycan array binding signal (z-score),[9],0.987
same,glycan array binding signal (z-score),[10],-0.215
same,glycan array binding signal (z-score),Gal(a1-4)GlcNAc,0.038
same,glycan array binding signal (z-score),Gal(a1-6)Glc,-0.476
same,glycan array binding signal (z-score),Gal(b1-2)Gal,0.097
same,glycan array binding signal (z-score),Gal(b1-3)Gal,-0.08
same,glycan array binding signal (z-score),Gal(b1-3)Gal(b1-4)GlcNAc,-0.293
same,glycan array binding signal (z-score),Gal(b1-3)GalNAc,-0.35
same,glycan array binding signal (z-score),[11],-0.168
same,glycan array binding signal (z-score),[12],-0.573
same,glycan array binding signal (z-score),Gal(b1-3)GalNAc(b1-3)Gal,-0.145
same,glycan array binding signal (z-score),[13],-0.273
same,glycan array binding signal (z-score),[14],-0.02
same,glycan array binding signal (z-score),[15],0.325
same,glycan array binding signal (z-score),Gal(b1-3)GlcNAc,-0.25
same,glycan array binding signal (z-score),[16],-0.595
same,glycan array binding signal (z-score),[17],-0.411
same,glycan array binding signal (z-score),Gal(b1-3)GlcNAc(b1-2)Man,0.152
same,glycan array binding signal (z-score),[18],-0.088
same,glycan array binding signal (z-score),[19],-0.235
same,glycan array binding signal (z-score),[20],-0.259
same,glycan array binding signal (z-score),[21],0.629
same,glycan array binding signal (z-score),[22],-0.071
same,glycan array binding signal (z-score),[23],0.179
same,glycan array binding signal (z-score),[24],-0.169

# Two entries from above, reformatted.
binder | measurement | setting | value
B1 | glycan array binding signal (z-score) | Gal(b1-3)Gal | -0.08
same | glycan array binding signal (z-score) | [18] | -0.088
